## Library screen at single concentrations

The values are deposited in ChEMBL (CHEMBL3988442, “University of Dundee, Small-Polar-MMV Screening Library” (2021)).

T. brucei: 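Whole-parasite assay of Trypanosoma brucei over 72 hours; the read-out is not stated. Tested at 30 µM. Higher reads as stronger inhibition (inferred: compounds with an IC50 in retests scored well above the rest). Values scatter widely below zero; nearly all retest evidence comes from the higher of the two concentrations used. Of about 64,000 compounds tested this way, about 940 (1.5%) reached 50% or more in at least one test.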
Leishmania in macrophages: 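Cell assay of Leishmania donovani living inside macrophages; the read-out is not stated. Tested at 30 µM. Direction is inferred from retests: higher values go with stronger inhibition. Of about 69,000 compounds tested this way, about 1,000 (1.5%) reached 50% or more in at least one test.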
Toxoplasma: 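Assay of Toxoplasma gondii numbers, read through their beta-galactosidase reporter with a colour substrate. Concentration: 10 µM. The record gives no direction; the compounds picked for IC50 retests had high values, so higher reads as fewer parasites. About 67,000 compounds were tested under these conditions; 0.38% (about 260) showed 50% or more at least once.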

Results are given as percent effect. The record does not define 0% and 100%; most values in the screen are far below 50% and negative numbers occur (in some assays of this library far below -100). Compounds were drawn at random from those tested, without regard to their results. Two or more numbers in one place are separate tests of the same structure; such repeats can differ widely. A dash means the value is not listed here; it may have been measured.

structure	T. brucei	Leishmania in macrophages	Toxoplasma
CCN1CCN(c2ccc(F)cc2C(C)NCc2ccccn2)CC1 (stereo not given)	-59.36%	-0.1212%	-14.09%
O=C(Nc1cccc(C2SCCS2)c1)C1CCCN1c1nccs1 (stereo not given)	-0.8849%	46.96%	-2.191%
Cc1cccc(-c2noc([C@@H]3C[C@@H](O)CN3Cc3ccc(CO)o3)n2)c1	-11.02%	-11.06%	2.833%
O=C(c1ccc(O)nc1)N1CCN(C(=O)c2ccc(F)cc2F)CC1	-55.62%	6.883%	17.63%
c1cncc(-c2nnc([C@H]3CCN(CC4CC4)C3)o2)c1	-46.57%	-20.87%	-3.887%
COC(=O)CNC(=O)N1CCN(c2nc3ccccc3n2C)CC1	-6.957%	8.574%	10.38%
Cc1nc(C)c(C(=O)N2CCc3nnc(C4CCCCN4C)n3CC2)s1 (stereo not given)	2.799%	22.55%	-3.82%
COCc1ncn(Cc2nc(-c3ccco3)oc2C)n1	-13.94%	38.47%	-10.91%
CCN(CC)c1ccc(NC(=O)NCC2CCOC2)cn1 (stereo not given)	-18.38%	23.25%	6.546%
CCC1CN(CCC(=O)N(C)C)CCN1CCOC (stereo not given)	-28.06%	30.41%	8.903%
O=C(O)C(F)(F)F.[H][C@@]12COC[C@@H](CC(=O)N3CCCCO3)[C@]1([H])CN(C1CCCC1)C2	1.562%	0.3497%	5.179%
Fc1cccc(CN2CCC(c3n[nH]c4ncccc34)CC2)c1F	18.42%	42.1%	2.498%
Cc1c2nnn(CC(=O)N(C)C)c(=O)c2nn1C	12.37%	3.97%	2.409%
COc1cc(N2CCC3(CC(=O)N(Cc4csc(C)n4)C3)C2)ncn1 (stereo not given)	-83.77%	45.78%	-3.334%
Fc1cccc(Cc2cncc(C3CCCN3C3CCOCC3)n2)c1 (stereo not given)	9.592%	18.93%	-15.32%
O=C(CCc1ccc(Cl)s1)N1CCC(N2CCNC2=O)CC1	-	17.26%	3.006%
CCN(CC)C(=O)CN1CCC(c2nc(C)c3c(n2)N(C)CCC3)CC1	-	-13.08%	-
CN(C)C(=O)CCCS(=O)(=O)Cc1cc(Cl)c2c(c1)OCCO2	-4.384%	2.878%	-1.87%
CCOc1ccc(NC(=O)c2ccc(C#N)cc2C)cc1CO	-33.05%	11.21%	2.589%
Cc1ccc(-c2nc(CSCCC(=O)NC(N)=O)co2)c(C)c1	-8.279%	-16.79%	0%
Cn1nc(C2CCNCC2)c2c(C(=O)NC3CC3)cc(C3CC3)nc21	-	-2.218%	-1.706%
CCCn1cc(CN2CCCC2c2nccc(CN(C)C)n2)cn1 (stereo not given)	-12.05%	-4.658%	1.532%
O=C(CN1CCN(C(=O)Cc2ccc3c(c2)OCCO3)CC1)NC1CC1	-2.258%	28.64%	1.059%
CC(C)(C)c1nnc(CNc2c(F)cccc2-n2cccn2)o1	-27.75%	14.32%	6.984%
CC(C)CN1CCN(C(=O)c2[nH]nnc2Nc2ccccc2F)CC1	1.727%	3.378%	-13.87%
Cc1ccc(CN(C)C(=O)CN2CCOC(Cn3cncn3)C2)o1 (stereo not given)	-37.03%	10.38%	-
CCS(=O)(=O)NCCCNCc1c(C)nn(C)c1N(C)C	-16.5%	-21.2%	9.703%
Cc1nnc(C(C)Nc2cccc(COCC(F)(F)C(F)F)c2)o1 (stereo not given)	-49.46%	6.296%	6.304%
O=C(Nc1cncc(Br)c1O)c1ccon1	-12.39%	27.27%	-0.06378%
COCCN1CCC(CNC(=O)Nc2ccc(F)c(Cl)c2)C1 (stereo not given)	73.54%	9.001%	-15.16%
O=C(O)C(F)(F)F.O=C(O)C(F)(F)F.[H][C@@]12COC[C@]1(CNC(=O)c1ccccc1)CN(Cc1cccc(C)n1)C2	36.57%	17.15%	1.486%
Cc1ccc(NCc2ccc(C#N)cc2)c(CN(C)C)c1	-36.29%	15.89%	14.2%
COCC(=O)NC[C@H]1OC[C@@H](NC2CCC(F)(F)CC2)[C@@H]1O	-4.058%	20.21%	-6.01%
CN(C)c1ncc(I)c(C2CCCN2C)n1.Cl (stereo not given)	-5.31%	4.808%	-9.766%
CCO[C@H]1C[C@@H](O)C12CCN(C1CCN(c3ccccc3C)CC1)CC2	12.28%	24.02%	1.073%
[H][C@]12CC[C@]([H])(CN(C(C)=O)C1)N(S(=O)(=O)c1cc(F)ccc1C)C2	-62.87%	21.86%	14.83%
CCN1CC(C(=O)NC(C)(C)C)CC1=O (stereo not given)	-28.46%	14%	2.145%
COCc1cnc2n1CCN(C(=O)c1cc3ccccc3o1)C2C (stereo not given)	-46.18%	-3.221%	-2.791%
CN(CCc1noc(C2CC2)n1)C(=O)CN1C(=O)COc2ccccc21	-12.57%	99.57%	-15.51%
Cc1ncsc1C(=O)OCCN1CCCCCC1=O	-49.14%	-12.81%	-17.64%
Cc1noc(CCCNS(=O)(=O)N2CCCC2c2ccco2)n1 (stereo not given)	3.769%	20.13%	3.739%
Cc1cc(C2CCCN2C(=O)c2csc(-c3cnn(C)c3)n2)on1 (stereo not given)	-16.21%	19.93%	14.06%
CN(C)c1ccc(CC2CCN(c3cnccn3)C2)nn1 (stereo not given)	-	36.93%	-
Cc1ccc(N2CCCC(NCc3ccsc3)C2)nn1 (stereo not given)	-21%	25.54%	1.436%
CC(Nc1nc(-c2ccccc2)nc2c1CCNCC2)c1cccnc1 (stereo not given)	-22.1%	22.97%	5.993%
CS(=O)(=O)N1CCC(NC(=O)COc2ccc3ccccc3c2)CC1	-	26.82%	3.773%
O=C(CCc1ccccc1)N1CCn2cc(Cn3cncn3)nc2C1	-36.53%	12.53%	-0.8869%
CCOCCCNC(=O)c1nn(CC)cc1Cl	-25.67%	-6.138%	0.3586%
FC(F)(F)C1CCc2nnc(CNCc3cccs3)n2C1 (stereo not given)	-31.91%	0.2735% & -19.4%	6.025%
Cc1c(I)cccc1C(=O)NCc1nnc[nH]1	-22.17%	-16.13%	-3.792%
CCN(CC(=O)NC)S(=O)(=O)c1cnc2c(c1)c(C)nn2C	-12.25%	13.87%	-7.182%
Cc1ccc(C2CN(C(=O)c3c(C)cc(C)[nH]c3=O)CCO2)c(C)c1 (stereo not given)	-4.125%	42.54%	10.46%
O=C(NC1CCS(=O)(=O)C1)c1sccc1-c1ccc(F)cc1 (stereo not given)	-50.18%	15.27%	2.392%
CCCS(=O)(=O)NCc1ncc(C)c(OC)c1C	6.001%	10.31%	-7.47%
COc1ncc(NCc2cccc(C#N)c2)cc1C(N)=O	-28.75%	21.69%	2.869%
O=C(c1ccno1)N1C[C@@H](F)[C@@H](OCc2nc3ccccc3o2)C1	-18.42%	18.53%	4.204%
Cc1noc(C)c1-c1ccc(C2CCCN2CCC(N)=O)nc1 (stereo not given)	-5.861%	12.99% & 32.6%	-44.34%
CCn1cc(Cl)c(C(=O)NCc2cnn(C)c2)n1	-	-31.32%	-42.5%
COc1c(C(=O)NCC(C)Sc2ccccc2)c(C)nn1C (stereo not given)	-22.13%	47.79%	4.083%
Cc1cc(C2CCCN(Cc3noc(Cc4ccccc4)n3)C2)n[nH]1 (stereo not given)	-18.98%	0.6882%	0.3211%
COCC1CCN(S(=O)(=O)N2C[C@@H](C)[C@](O)(C3CC3)C2)CC1	-20.63%	-9.733%	-0.5569%
c1cc(CN2CCC3(CC2)COC(COCC2CC2)C3)cs1 (stereo not given)	11.37%	18.54%	-7.951%
NC(=O)CN1CCC(c2cc(C(F)(F)F)n3ccnc3n2)CC1	-35.87%	1.548% & 2.693%	-2.499%
Cn1ccc2ccc(C(=O)Nc3nc[nH]n3)cc21	-16.84%	-18.29% & 10.36%	9.323%
O=C(CC1CCc2ccccc21)NCCSc1cnn[nH]1 (stereo not given)	-29.97%	6.191%	-0.8599%
COc1ccc(-c2ccccc2CCN)c(OC)c1OC	106.1%	95.35%	43.61%
COC(C)(C)c1noc(C2(C#N)CCCCC2)n1	-59.62%	-9.952%	1.667%
CCc1nnc2n1CC(CNCc1nnc(C(C)(C)C)o1)CC2 (stereo not given)	2.936%	-2.116%	1.705%
CCc1n[nH]c(C2CN(C(=O)c3cc(C(N)=O)cs3)CCO2)n1 (stereo not given)	-	21.66%	0.1893%
NCC1CCN(C2CCN(c3ccc(-c4ccco4)cc3)CC2)C1 (stereo not given)	100.4%	-341.1%	48.53%
CCNCCC(Cc1ccccc1)c1ccco1 (stereo not given)	-	2.45%	-38.66%
O=C(NCCC1=CCCCC1)c1cc(-c2ccc(O)cc2)n[nH]1	-	24.94%	74.79%
COCCN(C)C(=O)Nc1cc2c(cc1SC)OCCO2	-54.71%	-9.825%	-1.578%

For reference, 6 entries once more:

structure	T. brucei	Leishmania in macrophages	Toxoplasma
NC(=O)CN1CCC(c2cc(C(F)(F)F)n3ccnc3n2)CC1	-35.87%	1.548% & 2.693%	-2.499%
O=C(CCc1ccccc1)N1CCn2cc(Cn3cncn3)nc2C1	-36.53%	12.53%	-0.8869%
O=C(c1ccc(O)nc1)N1CCN(C(=O)c2ccc(F)cc2F)CC1	-55.62%	6.883%	17.63%
FC(F)(F)C1CCc2nnc(CNCc3cccs3)n2C1 (stereo not given)	-31.91%	0.2735% & -19.4%	6.025%
Cc1ccc(CN(C)C(=O)CN2CCOC(Cn3cncn3)C2)o1 (stereo not given)	-37.03%	10.38%	-
COc1cc(N2CCC3(CC(=O)N(Cc4csc(C)n4)C3)C2)ncn1 (stereo not given)	-83.77%	45.78%	-3.334%